In the supplement of paper PMC10849652 one finds log2 fold change data, which are given here for 32 targets.

Protein sequences, listed by entry. Tags and fused reporters are not part of them. Lines headed by an entry give the natural chain unless they say otherwise; changes in a name come on top.
UniProt Q8IYB5: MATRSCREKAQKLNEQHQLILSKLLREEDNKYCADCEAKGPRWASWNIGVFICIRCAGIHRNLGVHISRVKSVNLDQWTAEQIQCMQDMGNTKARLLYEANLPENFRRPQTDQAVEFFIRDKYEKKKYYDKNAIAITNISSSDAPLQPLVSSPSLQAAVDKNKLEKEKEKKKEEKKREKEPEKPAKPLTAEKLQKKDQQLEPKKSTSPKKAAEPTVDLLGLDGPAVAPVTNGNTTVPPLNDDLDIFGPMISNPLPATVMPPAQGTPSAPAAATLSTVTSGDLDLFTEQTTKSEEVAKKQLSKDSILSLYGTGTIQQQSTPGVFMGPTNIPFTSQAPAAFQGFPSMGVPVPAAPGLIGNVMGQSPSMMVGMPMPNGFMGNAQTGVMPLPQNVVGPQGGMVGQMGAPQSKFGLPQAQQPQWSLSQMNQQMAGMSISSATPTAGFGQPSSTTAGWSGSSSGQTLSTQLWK
UniProt O75643, whole entry, looked up: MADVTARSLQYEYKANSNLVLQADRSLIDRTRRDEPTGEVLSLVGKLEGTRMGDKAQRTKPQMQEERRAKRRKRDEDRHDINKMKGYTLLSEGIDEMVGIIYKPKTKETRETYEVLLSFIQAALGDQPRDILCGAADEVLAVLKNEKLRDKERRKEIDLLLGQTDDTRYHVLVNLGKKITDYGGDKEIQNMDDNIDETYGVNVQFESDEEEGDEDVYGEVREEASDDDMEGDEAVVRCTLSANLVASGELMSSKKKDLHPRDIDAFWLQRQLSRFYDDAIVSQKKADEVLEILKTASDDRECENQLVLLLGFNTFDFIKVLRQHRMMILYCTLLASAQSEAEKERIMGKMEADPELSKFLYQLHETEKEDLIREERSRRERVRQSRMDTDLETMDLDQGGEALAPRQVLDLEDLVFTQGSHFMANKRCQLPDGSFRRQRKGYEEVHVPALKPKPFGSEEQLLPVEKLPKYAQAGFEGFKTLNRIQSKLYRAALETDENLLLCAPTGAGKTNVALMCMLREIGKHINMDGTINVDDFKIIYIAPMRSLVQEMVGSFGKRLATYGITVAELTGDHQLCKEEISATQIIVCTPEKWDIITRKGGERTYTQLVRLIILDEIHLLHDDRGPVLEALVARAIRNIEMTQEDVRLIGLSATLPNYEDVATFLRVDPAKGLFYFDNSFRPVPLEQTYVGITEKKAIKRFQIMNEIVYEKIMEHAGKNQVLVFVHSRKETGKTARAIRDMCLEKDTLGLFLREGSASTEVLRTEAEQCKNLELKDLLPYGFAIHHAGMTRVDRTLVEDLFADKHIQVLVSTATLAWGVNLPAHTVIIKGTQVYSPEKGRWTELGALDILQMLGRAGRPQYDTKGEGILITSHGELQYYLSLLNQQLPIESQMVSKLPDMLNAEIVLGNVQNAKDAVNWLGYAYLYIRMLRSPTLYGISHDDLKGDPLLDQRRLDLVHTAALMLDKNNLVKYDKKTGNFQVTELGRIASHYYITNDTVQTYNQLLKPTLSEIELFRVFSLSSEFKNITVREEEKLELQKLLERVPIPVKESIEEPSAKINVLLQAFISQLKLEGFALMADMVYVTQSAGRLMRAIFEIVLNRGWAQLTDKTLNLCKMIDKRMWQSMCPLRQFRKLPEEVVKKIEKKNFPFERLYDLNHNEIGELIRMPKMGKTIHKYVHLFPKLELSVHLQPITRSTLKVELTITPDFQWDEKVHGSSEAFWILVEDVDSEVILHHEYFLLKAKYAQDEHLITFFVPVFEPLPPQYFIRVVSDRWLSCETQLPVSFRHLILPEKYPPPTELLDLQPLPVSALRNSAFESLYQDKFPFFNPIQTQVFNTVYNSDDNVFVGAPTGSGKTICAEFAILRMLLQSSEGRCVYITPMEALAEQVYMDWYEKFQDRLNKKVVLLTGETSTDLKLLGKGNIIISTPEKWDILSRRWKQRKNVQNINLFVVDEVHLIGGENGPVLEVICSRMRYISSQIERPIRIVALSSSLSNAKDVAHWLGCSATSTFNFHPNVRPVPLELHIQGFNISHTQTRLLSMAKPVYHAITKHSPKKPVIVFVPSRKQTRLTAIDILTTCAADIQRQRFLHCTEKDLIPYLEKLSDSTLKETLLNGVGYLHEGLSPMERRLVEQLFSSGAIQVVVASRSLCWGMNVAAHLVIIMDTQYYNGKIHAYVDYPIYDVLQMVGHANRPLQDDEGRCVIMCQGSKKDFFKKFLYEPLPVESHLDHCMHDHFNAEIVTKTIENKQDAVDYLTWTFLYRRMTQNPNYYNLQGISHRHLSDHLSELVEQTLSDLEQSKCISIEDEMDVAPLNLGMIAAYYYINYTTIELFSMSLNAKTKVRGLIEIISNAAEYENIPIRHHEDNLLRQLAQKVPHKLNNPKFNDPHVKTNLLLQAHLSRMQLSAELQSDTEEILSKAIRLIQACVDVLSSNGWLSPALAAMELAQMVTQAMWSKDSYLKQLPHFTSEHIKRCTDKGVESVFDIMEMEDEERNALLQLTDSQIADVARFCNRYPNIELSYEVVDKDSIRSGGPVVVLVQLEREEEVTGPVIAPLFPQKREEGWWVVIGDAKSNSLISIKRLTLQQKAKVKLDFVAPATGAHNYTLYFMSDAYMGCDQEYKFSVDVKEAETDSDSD
UniProt O60906: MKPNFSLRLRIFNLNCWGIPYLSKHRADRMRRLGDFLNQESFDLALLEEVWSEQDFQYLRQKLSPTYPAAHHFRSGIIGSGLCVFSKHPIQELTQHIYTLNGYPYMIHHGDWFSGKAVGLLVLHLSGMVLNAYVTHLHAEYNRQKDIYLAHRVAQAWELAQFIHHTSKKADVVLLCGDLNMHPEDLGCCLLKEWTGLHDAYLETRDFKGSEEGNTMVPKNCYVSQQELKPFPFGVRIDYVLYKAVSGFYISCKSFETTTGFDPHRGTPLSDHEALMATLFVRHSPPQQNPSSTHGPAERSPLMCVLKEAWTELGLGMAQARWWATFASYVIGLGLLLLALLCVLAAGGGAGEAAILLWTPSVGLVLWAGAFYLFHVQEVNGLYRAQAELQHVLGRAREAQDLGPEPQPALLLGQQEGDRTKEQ
UniProt Q15599: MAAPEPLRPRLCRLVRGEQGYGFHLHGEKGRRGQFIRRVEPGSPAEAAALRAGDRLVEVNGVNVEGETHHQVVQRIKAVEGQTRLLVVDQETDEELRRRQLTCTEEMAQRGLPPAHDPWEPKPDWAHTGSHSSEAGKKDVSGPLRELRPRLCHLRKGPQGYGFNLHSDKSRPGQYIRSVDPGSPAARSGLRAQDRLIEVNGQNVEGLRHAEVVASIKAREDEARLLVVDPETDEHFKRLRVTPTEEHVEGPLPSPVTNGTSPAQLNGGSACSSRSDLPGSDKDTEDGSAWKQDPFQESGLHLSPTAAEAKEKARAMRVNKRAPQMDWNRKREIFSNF
UniProt Q96EX1: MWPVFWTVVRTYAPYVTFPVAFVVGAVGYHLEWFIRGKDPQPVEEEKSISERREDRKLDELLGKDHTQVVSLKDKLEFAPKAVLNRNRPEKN
UniProt P00441, whole entry, looked up: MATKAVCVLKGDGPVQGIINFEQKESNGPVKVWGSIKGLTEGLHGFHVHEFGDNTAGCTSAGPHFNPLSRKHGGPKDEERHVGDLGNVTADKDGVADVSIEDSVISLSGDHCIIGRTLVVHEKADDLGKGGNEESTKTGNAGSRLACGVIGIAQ
UniProt Q15036: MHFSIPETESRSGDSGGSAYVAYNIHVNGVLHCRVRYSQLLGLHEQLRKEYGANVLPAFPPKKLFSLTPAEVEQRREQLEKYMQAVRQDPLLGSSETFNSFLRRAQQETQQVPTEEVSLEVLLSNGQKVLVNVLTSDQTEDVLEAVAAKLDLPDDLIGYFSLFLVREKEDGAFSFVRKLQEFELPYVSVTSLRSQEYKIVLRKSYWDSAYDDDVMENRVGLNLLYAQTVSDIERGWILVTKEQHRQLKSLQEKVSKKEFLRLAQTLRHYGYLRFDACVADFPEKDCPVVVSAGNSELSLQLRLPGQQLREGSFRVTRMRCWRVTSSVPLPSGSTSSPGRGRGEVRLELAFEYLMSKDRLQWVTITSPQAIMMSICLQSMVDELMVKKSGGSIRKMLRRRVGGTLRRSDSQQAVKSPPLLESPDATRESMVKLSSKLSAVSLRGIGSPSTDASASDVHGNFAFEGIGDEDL
UniProt Q8TAQ2, whole entry, looked up: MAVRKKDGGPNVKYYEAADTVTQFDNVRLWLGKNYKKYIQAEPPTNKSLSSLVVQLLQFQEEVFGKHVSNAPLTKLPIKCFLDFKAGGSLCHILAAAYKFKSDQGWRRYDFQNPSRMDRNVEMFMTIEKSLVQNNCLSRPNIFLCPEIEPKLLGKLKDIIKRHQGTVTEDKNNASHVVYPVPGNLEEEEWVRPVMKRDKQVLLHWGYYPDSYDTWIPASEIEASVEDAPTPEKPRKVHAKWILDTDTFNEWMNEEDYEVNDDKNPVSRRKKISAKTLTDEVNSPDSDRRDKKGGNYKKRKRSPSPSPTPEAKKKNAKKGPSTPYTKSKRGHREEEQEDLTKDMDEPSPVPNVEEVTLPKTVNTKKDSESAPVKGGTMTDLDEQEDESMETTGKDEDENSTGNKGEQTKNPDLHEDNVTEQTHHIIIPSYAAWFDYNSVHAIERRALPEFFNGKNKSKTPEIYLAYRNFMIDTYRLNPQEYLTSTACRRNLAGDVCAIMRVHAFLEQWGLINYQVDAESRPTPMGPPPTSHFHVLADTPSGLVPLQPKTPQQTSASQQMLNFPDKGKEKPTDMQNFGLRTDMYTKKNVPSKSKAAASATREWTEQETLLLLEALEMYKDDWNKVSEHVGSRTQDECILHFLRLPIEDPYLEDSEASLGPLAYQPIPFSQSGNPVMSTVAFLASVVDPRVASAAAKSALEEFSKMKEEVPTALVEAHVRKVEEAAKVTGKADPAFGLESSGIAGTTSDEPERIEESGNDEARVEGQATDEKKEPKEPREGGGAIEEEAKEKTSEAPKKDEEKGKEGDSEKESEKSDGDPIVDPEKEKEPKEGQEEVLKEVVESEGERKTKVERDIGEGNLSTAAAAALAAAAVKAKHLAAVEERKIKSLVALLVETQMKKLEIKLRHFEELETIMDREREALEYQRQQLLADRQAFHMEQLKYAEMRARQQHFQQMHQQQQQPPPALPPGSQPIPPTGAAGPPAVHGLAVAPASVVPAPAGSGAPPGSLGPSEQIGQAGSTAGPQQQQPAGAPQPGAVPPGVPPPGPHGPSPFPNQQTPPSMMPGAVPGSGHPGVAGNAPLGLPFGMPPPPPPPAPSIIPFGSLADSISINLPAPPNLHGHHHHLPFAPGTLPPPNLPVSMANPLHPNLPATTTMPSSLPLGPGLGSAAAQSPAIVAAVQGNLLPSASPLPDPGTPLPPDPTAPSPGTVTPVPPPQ
UniProt O14508, whole entry, looked up: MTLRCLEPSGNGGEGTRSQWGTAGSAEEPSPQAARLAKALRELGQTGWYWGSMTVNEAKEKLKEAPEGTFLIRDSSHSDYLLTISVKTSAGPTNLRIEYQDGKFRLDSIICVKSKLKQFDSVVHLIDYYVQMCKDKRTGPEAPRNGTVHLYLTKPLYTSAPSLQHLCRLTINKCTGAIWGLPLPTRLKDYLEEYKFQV
UniProt P62308, whole entry, looked up: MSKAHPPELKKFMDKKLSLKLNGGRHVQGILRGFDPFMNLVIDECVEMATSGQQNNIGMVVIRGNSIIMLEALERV
UniProt P62316, whole entry, looked up: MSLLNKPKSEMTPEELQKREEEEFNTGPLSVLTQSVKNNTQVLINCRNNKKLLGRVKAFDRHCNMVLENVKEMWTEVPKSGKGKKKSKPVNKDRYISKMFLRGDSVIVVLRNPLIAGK
UniProt Q96H20: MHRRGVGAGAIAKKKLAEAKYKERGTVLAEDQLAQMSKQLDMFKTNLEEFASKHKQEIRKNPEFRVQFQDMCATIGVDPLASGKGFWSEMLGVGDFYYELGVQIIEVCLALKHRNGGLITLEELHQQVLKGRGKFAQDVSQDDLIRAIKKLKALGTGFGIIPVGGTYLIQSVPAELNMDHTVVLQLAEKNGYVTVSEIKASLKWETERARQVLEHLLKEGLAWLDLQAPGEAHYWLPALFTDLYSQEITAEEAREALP
UniProt P09661: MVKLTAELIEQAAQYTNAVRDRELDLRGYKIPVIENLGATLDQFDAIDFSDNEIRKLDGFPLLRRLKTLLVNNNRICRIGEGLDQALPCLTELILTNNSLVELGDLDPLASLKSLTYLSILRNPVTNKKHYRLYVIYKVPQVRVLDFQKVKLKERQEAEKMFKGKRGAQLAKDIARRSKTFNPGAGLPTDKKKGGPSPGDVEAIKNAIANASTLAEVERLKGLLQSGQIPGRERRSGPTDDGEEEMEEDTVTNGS
UniProt P04179: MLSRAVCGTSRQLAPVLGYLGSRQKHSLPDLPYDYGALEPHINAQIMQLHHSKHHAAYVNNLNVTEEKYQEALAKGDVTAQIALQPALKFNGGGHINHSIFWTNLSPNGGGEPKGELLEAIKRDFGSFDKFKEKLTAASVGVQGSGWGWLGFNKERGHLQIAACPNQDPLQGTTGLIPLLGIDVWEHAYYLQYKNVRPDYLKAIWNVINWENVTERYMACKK

This is one part of the list.

Compound in this assay: CC[C@@H]1C(=O)N(C)c2cnc(Nc3ccc(C(=O)NC4CCN(C)CC4)cc3OC)nc2N1C1CCCC1
Briefly: log2 fold change, soluble protein after heating vs DMSO (PISA); higher = thermal stabilisation; K562 cells, 10 uM, 30 min; active = over 0.2 and 3.5 SD of the protein, either way, in both replicates (recomputed). Summed up:
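Thermal stability values are relative to control samples and come from duplicates. They are expressed as log2 fold changes. For measurement, K562 cells (2×10^6 cells/mL) received 10 μM compound for 30 min, and aliquots were heated for 3 min over 48°C-58°C, pooled, and extracted at 4°C in PBS with 0.5% NP-40. Soluble protein, the supernatant after 21,000xg for 90 min, was quantified by TMTpro 16plex LC-MS/MS with equalised channel sums.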
For the target SLMAP (UniProt Q14BN4), the log2 fold change was inactive: 0.035.

Consider SNAP23 (UniProt O00161), for which the log2 fold change is inactive: 0.048.

Turning to SNAP29 (UniProt O95721), the log2 fold change was inactive: -0.013.

For SMYD5 (UniProt Q6GMV2), the log2 fold change is inactive: -0.02.

Take SMAP1 isoform 2 (UniProt Q8IYB5): the log2 fold change is inactive: -0.018.

For the target SNRNP200 (UniProt O75643), the log2 fold change was inactive: 0.078.

Take SMPD2 (UniProt O60906): the log2 fold change is inactive: 0.128.

As to SPAG5 (UniProt Q96R06), the log2 fold change was inactive: -0.071.

Consider SLC9A3R2 (UniProt Q15599), for which the log2 fold change was inactive: 0.014.

Regarding SLC9A1 (UniProt P19634), the log2 fold change is inactive: 0.059.

As for SNCA (UniProt P37840), the log2 fold change was inactive: 0.038.

Turning to SMIM12 (UniProt Q96EX1), the log2 fold change is inactive: -0.173.

As for SNRPC (UniProt Q5TAL2), the log2 fold change is inactive: 0.225.

With SOD1 (UniProt P00441), the log2 fold change was inactive: 0.05.

On to SLC9A3R1 (UniProt O14745), for which the log2 fold change is inactive: -0.035.

For SMG7 isoform 4 (UniProt Q92540), the log2 fold change is inactive: -0.046.

As to SMU1 (UniProt Q2TAY7), the log2 fold change is inactive: -0.001.

In the case of SMC1A (UniProt Q14683), the log2 fold change is inactive: -0.019.

For SNX17 (UniProt Q15036), the log2 fold change is inactive: 0.

On to SMARCC2 (UniProt Q8TAQ2), for which the log2 fold change is inactive: 0.02.

For SOCS2 (UniProt O14508), the log2 fold change was inactive: 0.08.

As for SORD (UniProt Q00796), the log2 fold change was inactive: 0.047.

Consider SMC1B isoform 3 (UniProt Q8NDV3), for which the log2 fold change is inactive: -0.126.

With SNX16 (UniProt P57768), the log2 fold change was inactive: 0.172.

In the case of SNRPG (UniProt P62308), the log2 fold change was inactive: 0.069.

For SMN1 (UniProt Q16637), the log2 fold change is inactive: -0.211.

For the target SNRPD2 (UniProt P62316), the log2 fold change is inactive: 0.127.

Take SNF8 (UniProt Q96H20): the log2 fold change was inactive: 0.028.

Turning to SNRPA1 (UniProt P09661), the log2 fold change was inactive: 0.095.

SNX8 (UniProt Q9Y5X2): the log2 fold change is inactive: 0.02.

Turning to SNU13, A0A3B3IUA2, the log2 fold change was inactive: 0.097.

On to SOD2 (UniProt P04179), for which the log2 fold change is inactive: 0.035.
